# From PubChem BioAssay AID202 (DTP/NCI, 2004)
# The list shows only some results of the screen, not a fair sample: its compounds were picked by chemical class. Other doses and runs of a compound may be missing. T/C gives the treated animals as a percentage of the vehicle group. Schedule codes are those of the source, read here as Q, the interval in days (D) or hours (H), X, the number of doses. Some T/C values are followed by the survivors on the day toxicity was checked; where neither a count nor a note follows, no animal had died by that day. Some entries give survivors of the animals treated and no T/C: the source holds a T/C of zero for them, seemingly a mark for toxic or unscored doses. Survivors were counted at the toxicity check; its day is shown where the source gives one, and later deaths do not show.
# System: HT29 xenograft, nude mice, s.c., tumor weight T/C%
# Assay: NCI In Vivo Anticancer Drug Screen. Data for tumor model HT29;CX-1 Human Adenocarcinoma (MER+) (subcutaneous) in NU/NU Swiss (nude) mice
# Conditions: T/C endpoint: optimum tumor weight change, schedule: Q04DX003 (ip), higher T/C = larger tumour
# Description: The antitumor activity of compounds was measured in mice bearing transplantable tumors. Survival or tumor size were measured and the results are expressed as the measurement made in the treated group (T) divided by the measurement made in the vehicle treated control group (C). The tumor model used in this assay is HT29;CX-1 Human Adenocarcinoma (MER+) (subcutaneous) in NU/NU Swiss (nude) mice
smiles,measurement,setting,value
C[N+](CCCl)(CCCl)Cc1ccc([N+](=O)[O-])cc1,T/C,"dose: 25.0 mg/kg/injection, vehicle: saline, evaluated on day 35",106 % of control
CC1=CC(=O)C(N(CCCl)CCCl)=CC1=O,T/C,"dose: 0.37 mg/kg/injection, vehicle: Klucel (hydroxypropylcellulose) (HPC), evaluated on day 34",102 % of control
same,T/C,"dose: 0.75 mg/kg/injection, vehicle: Klucel (hydroxypropylcellulose) (HPC), evaluated on day 34",91 % of control
same,T/C,"dose: 1.5 mg/kg/injection, vehicle: Klucel (hydroxypropylcellulose) (HPC), evaluated on day 34",57 % of control
same,T/C,"dose: 3.0 mg/kg/injection, vehicle: Klucel (hydroxypropylcellulose) (HPC), evaluated on day 34",102 % of control
ClCCN(CCCl)c1ccccc1,T/C,"dose: 25.0 mg/kg/injection, vehicle: saline with Tween-80, evaluated on day 32",95 % of control
same,T/C,"dose: 50.0 mg/kg/injection, vehicle: saline with Tween-80, evaluated on day 32",67 % of control
same,T/C,"dose: 100.0 mg/kg/injection, vehicle: saline with Tween-80, evaluated on day 32",65 % of control [4 of 5 alive on day 34]
same,survivor count,"dose: 200.0 mg/kg/injection, vehicle: saline with Tween-80",0 of 5 on day 34
